{"source": "PubChem BioAssay AID1259254, NCATS, 2017", "aim": "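Finding genes that stop cells copying their DNA twice in one cycle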 (primary screen)", "system": "human HCT116 colorectal cancer cells", "reagent": "single siRNA against human genes", "duration": "3 days", "detection": "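Nuclei stained with Hoechst and imaged; cell-cycle phase assigned by DNA content; G2 share scaled per plate, non-targeting siRNA 0%, GMNN siRNA 100%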", "direction": "G2 robust z-score and G2 cells, % of GMNN control: higher = more G2 cells, more excess DNA replication", "hit rule": "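Active siRNAs have a G2 robust z of 5 or more median absolute deviations over the median, which in these data means about 38% or higher of GMNN control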", "note": "This is a random part of about 59,000 reagents tested. About 1,550 of them (2.6%) count as active. 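G2 share is only a proxy for re-replication; each gene was hit by three separate siRNAs, and active genes were retested.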 Unmarked entries are inactive. The numbers tell different reagents against one gene apart. Further read-outs or replicates are left out here. Reagent sequences are not shown. Not given: the amount of reagent."}
{"target gene": "LOC150519 (retired record)", "reagent": 1, "G2 robust z-score": 0.678, "G2 cells, % of GMNN control": 7.74}
{"target gene": "LOC150519 (retired record)", "reagent": 2, "G2 robust z-score": 0.414, "G2 cells, % of GMNN control": 5.88}
{"target gene": "LOC150519 (retired record)", "reagent": 3, "G2 robust z-score": -0.065, "G2 cells, % of GMNN control": 2.51}
{"target gene": "TPR", "reagent": 1, "G2 robust z-score": -1.2, "G2 cells, % of GMNN control": -5.49}
{"target gene": "TPR", "reagent": 2, "G2 robust z-score": -1.3, "G2 cells, % of GMNN control": -6.18}
{"target gene": "TPR", "reagent": 3, "G2 robust z-score": -0.957, "G2 cells, % of GMNN control": -3.76}
{"target gene": "EXTL2", "reagent": 1, "G2 robust z-score": -0.822, "G2 cells, % of GMNN control": -2.81}
{"target gene": "EXTL2", "reagent": 2, "G2 robust z-score": -0.755, "G2 cells, % of GMNN control": -2.34}
{"target gene": "EXTL2", "reagent": 3, "G2 robust z-score": 2.25, "G2 cells, % of GMNN control": 18.8}
{"target gene": "NPC1", "reagent": 1, "G2 robust z-score": -0.474, "G2 cells, % of GMNN control": -0.369}
{"target gene": "NPC1", "reagent": 2, "G2 robust z-score": -0.363, "G2 cells, % of GMNN control": 0.412}
{"target gene": "NPC1", "reagent": 3, "G2 robust z-score": -0.63, "G2 cells, % of GMNN control": -1.46}
{"target gene": "PTPRT", "reagent": 1, "G2 robust z-score": 3.3, "G2 cells, % of GMNN control": 26.2}
{"target gene": "PTPRT", "reagent": 2, "G2 robust z-score": 0.82, "G2 cells, % of GMNN control": 8.74}
{"target gene": "PTPRT", "reagent": 3, "G2 robust z-score": 0.434, "G2 cells, % of GMNN control": 6.02}
{"target gene": "GPI", "reagent": 1, "G2 robust z-score": -1.27, "G2 cells, % of GMNN control": -5.97}
{"target gene": "GPI", "reagent": 2, "G2 robust z-score": 3.05, "G2 cells, % of GMNN control": 24.4}
{"target gene": "GPI", "reagent": 3, "G2 robust z-score": -0.711, "G2 cells, % of GMNN control": -2.03}
{"target gene": "IQCF2", "reagent": 1, "G2 robust z-score": -0.965, "G2 cells, % of GMNN control": -3.82}
{"target gene": "IQCF2", "reagent": 2, "G2 robust z-score": 0.107, "G2 cells, % of GMNN control": 3.72}
{"target gene": "IQCF2", "reagent": 3, "G2 robust z-score": -0.834, "G2 cells, % of GMNN control": -2.9}
{"target gene": "SOX17", "reagent": 1, "G2 robust z-score": -1.37, "G2 cells, % of GMNN control": -6.68}
{"target gene": "SOX17", "reagent": 2, "G2 robust z-score": 0.113, "G2 cells, % of GMNN control": 3.76}
{"target gene": "SOX17", "reagent": 3, "G2 robust z-score": 0.0325, "G2 cells, % of GMNN control": 3.2}
